{"source": "PubChem BioAssay AID602196 (INSERM, 2012)", "test": "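Modifiers of cisplatin sensitivity in A549 cells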", "cells": "human A549 lung cancer cells", "reagents": "siRNA pair against human genes", "timing": "48 h transfection before cisplatin; time from cisplatin to read-out not stated", "conditions": "cisplatin at a dose killing half of control-siRNA cells; exact dose and duration not given", "measurement": "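Shift in cisplatin death relative to control siRNA, from -50 (all cells die) to +50 (no cells die); siRNAs harmful on their own scored 0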", "direction": "two-siRNA summed score (-2 to +2): higher = both siRNAs protect from cisplatin killing; -2 means both sensitise; mean protection from cisplatin (shift in death): higher = protection from cisplatin killing", "active means": "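siRNAs harmful alone (LDH or WST-1) get 0; others get +1 for less and -1 for more cisplatin killing; genes are active when the two siRNAs give the same sign, summing to ±2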", "calls": "active = both siRNAs shift cisplatin killing the same way; inactive = no consistent shift, or siRNA harmful alone", "note": "The deposit covers about 23,000 reagents; shown is a part drawn at random. Of all reagents, 455 (2%) were called active. 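Active includes both protection and sensitisation; some change values fall well beyond the stated -50 to +50 range.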 Further read-outs or replicates are left out here. Not given: the amount of reagent."}
{"Target gene":"IGSF9","two-siRNA summed score (-2 to +2)":-1,"mean protection from cisplatin (shift in death) (%)":-11.3,"Call":"inactive"}
{"Target gene":"DDIT3","two-siRNA summed score (-2 to +2)":-1,"mean protection from cisplatin (shift in death) (%)":-11,"Call":"inactive"}
{"Target gene":"CUL2","two-siRNA summed score (-2 to +2)":0,"mean protection from cisplatin (shift in death) (%)":-24.1,"Call":"inactive"}
{"Target gene":"CDH20","two-siRNA summed score (-2 to +2)":-1,"mean protection from cisplatin (shift in death) (%)":-19.6,"Call":"inactive"}
{"Target gene":"LRCH1","two-siRNA summed score (-2 to +2)":0,"mean protection from cisplatin (shift in death) (%)":11.7,"Call":"inactive"}
{"Target gene":"LOC389689","two-siRNA summed score (-2 to +2)":0,"mean protection from cisplatin (shift in death) (%)":13.1,"Call":"inactive"}
{"Target gene":"ACSS1","two-siRNA summed score (-2 to +2)":0,"mean protection from cisplatin (shift in death) (%)":-5.1,"Call":"inactive"}
{"Target gene":"CDH12","two-siRNA summed score (-2 to +2)":0,"mean protection from cisplatin (shift in death) (%)":-1.3,"Call":"inactive"}
{"Target gene":"ZDHHC22","two-siRNA summed score (-2 to +2)":0,"mean protection from cisplatin (shift in death) (%)":5.1,"Call":"inactive"}
{"Target gene":"ME1","two-siRNA summed score (-2 to +2)":0,"mean protection from cisplatin (shift in death) (%)":-19.4,"Call":"inactive"}
{"Target gene":"SREK1IP1","two-siRNA summed score (-2 to +2)":0,"mean protection from cisplatin (shift in death) (%)":8.3,"Call":"inactive"}
{"Target gene":"PMEPA1","two-siRNA summed score (-2 to +2)":0,"mean protection from cisplatin (shift in death) (%)":-5.9,"Call":"inactive"}

A stretch taken from the entries so far, for reference:
{"Target gene":"ME1","two-siRNA summed score (-2 to +2)":0,"mean protection from cisplatin (shift in death) (%)":-19.4,"Call":"inactive"}
{"Target gene":"SREK1IP1","two-siRNA summed score (-2 to +2)":0,"mean protection from cisplatin (shift in death) (%)":8.3,"Call":"inactive"}
